PubChem BioAssay AID1224828 | NIAID | 2016
This is one part, drawn at random, of about 17,000 reagents. In the full data, 762 (4.5%) were called active. 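Active calls include both raised and lowered p65 entry, mostly lowered; wells with fewer than 50 cells lack a z-score.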 The raw values are shown without normalisation. Unmarked entries are inactive. Reagents against one gene are numbered here. No sequences are given here.

Aim: 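Find genes required for NF-kappaB p65 moving into the nucleus after LPS in mouse macrophages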 (primary screen)
Cell system: mouse RAW264.7 G9 macrophage reporter cells (GFP-p65, Tnf promoter-mCherry)
Reagent: siRNA pool against mouse genes, 100 nM
Timing: 2 days siRNA transfection, then 40 min LPS before fixation
Challenge: LPS (Salmonella minnesota R595) at 10 ng/ml
Detection: 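Imaged p65 nuclear translocation ratio, normalised to the plate median, converted to robust z-scores and averaged across two replicates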
Scale: p65 translocation robust z-score: higher = more nuclear NF-kappaB p65 after LPS than the plate median; nuclear/cytoplasmic p65 ratio: higher = more nuclear NF-kappaB p65
Rule for the call: 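Active if robust z is above 3.3 (negative regulators) or below -1.56, the Tlr4 control median (positive regulators); activity score 50 or more; control wells not called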
Meaning of the calls: active = hit (p65 shift raised or lowered); inactive = no clear change

no.	gene symbol	reagent	p65 translocation robust z-score	nuclear/cytoplasmic p65 ratio, rep 1	nuclear/cytoplasmic p65 ratio, rep 2	low cell count flag
1	Mrgprf	1	1.36	1.67	1.82	enough cells to score
2	Stat4	1		1.48	1.31	fewer than 50 cells per well; well left out of scoring
3	Actb	1	0.12	1.67	1.61	enough cells to score
4	Tmem50a	1	1.83	1.34	1.47	enough cells to score
5	Mr1	1	-0.39	1.74	1.51	enough cells to score
6	Azgp1	1	-0.83	1.4	1.48	enough cells to score
7	Mgll	1	0.5	1.5	1.42	enough cells to score
8	Tmcc1	1	1.83	1.83	1.94	enough cells to score
9	Emc10	1	1.32	1.53	1.39	enough cells to score
10	Or1j16	1	-0.74	1.55	1.28	enough cells to score
11	Or13a27	1		1.41	1.19	fewer than 50 cells per well; well left out of scoring
12	Cpap	1	-0.42	1.54	1.56	enough cells to score
13	Smarcb1	1	-0.11	1.56	1.51	enough cells to score
14	Vangl1	1		1.24	1.04	fewer than 50 cells per well; well left out of scoring
15	Or13e8	1		1.45	1.36	fewer than 50 cells per well; well left out of scoring
16	Adgb	1	0.95	1.7	1.81	enough cells to score
17	Rnf168	1		1.1	1.17	fewer than 50 cells per well; well left out of scoring
18	Sdsl	1	2.11	1.75	1.96	enough cells to score
19	B230354K17Rik	1	2.59	1.94	1.92	enough cells to score
20	Ptx3	1	-0.24	1.35	1.15	enough cells to score
21	Pygl	1	1.47	1.74	1.8	enough cells to score
22	Zfp574	1	-0.77	1.35	1.34	enough cells to score
23	Gngt2	1	1.33	1.84	1.74	enough cells to score
24	Atg4a	1	0.63	1.61	1.68	enough cells to score
25	Nrbp2	1	0.47	1.73	1.47	enough cells to score
26	Cytip	1	-1.37	1.17	1.09	enough cells to score
27	Or4k47	1	-0.77	1.5	1.32	enough cells to score
28	Polr3e	1	-0.48	1.35	1.13	enough cells to score
29	Styk1	1	1.25	1.93	1.51	enough cells to score
30	Tars2	1	-0.22	1.38	1.42	enough cells to score
31	Mptx1	1	-0.49	1.37	1.18	enough cells to score

A few values from the entries so far.
Polr3e, nuclear/cytoplasmic p65 ratio, rep 2 = 1.13
Rnf168, nuclear/cytoplasmic p65 ratio, rep 2 = 1.17
For “low cell count flag”, Stat4 shows fewer than 50 cells per well; well left out of scoring
For “nuclear/cytoplasmic p65 ratio, rep 2”, Cytip is entered as 1.09
For “nuclear/cytoplasmic p65 ratio, rep 1”, Zfp574 reads 1.35

Continued:
no.	gene symbol	reagent	p65 translocation robust z-score	nuclear/cytoplasmic p65 ratio, rep 1	nuclear/cytoplasmic p65 ratio, rep 2	low cell count flag
32	Svs6	1		1.3	1.17	fewer than 50 cells per well; well left out of scoring
33	Tmx3	1	-0.57	1.31	1.44	enough cells to score
34	Creb5	1	0.41	1.59	1.38	enough cells to score
35	Creb5	2	-3.16 (active)	1.01	1.09	enough cells to score
36	Teddm3	1		3.97	1.32	fewer than 50 cells per well; well left out of scoring
37	Psmb4	1	-3.4 (active)	0.983	1	enough cells to score
38	Ifnb1	1	-1.4	1.16	1.29	enough cells to score
39	Itgb5	1	0.29	1.55	1.38	enough cells to score
40	Ly6h	1	-0.26	1.55	1.61	enough cells to score
41	Gm11545	1	-0.22	1.36	1.48	enough cells to score
42	Mef2d	1	-0.22	1.28	1.32	enough cells to score
43	H2ax	1	0.99	1.56	1.51	enough cells to score
44	Or2n1	1	-0.93	1.49	1.29	enough cells to score
45	Airn	1	0.67	1.39	1.66	enough cells to score
46	Zfp33b	1	-0.23	1.29	1.32	enough cells to score
47	St6galnac5	1	-0.78	1.3	1.16	enough cells to score
48	Kif26b	1	-1.3	1.39	1.35	enough cells to score
49	Kif26b	2		1.48	1.44	fewer than 50 cells per well; well left out of scoring
50	Psme2	1		1.05	1.46	fewer than 50 cells per well; well left out of scoring
51	Chst2	1	-0.39	1.58	1.67	enough cells to score
52	Pdgfc	1		1.05	1.1	fewer than 50 cells per well; well left out of scoring
53	Klra7	1	0.46	1.51	1.47	enough cells to score
54	Sema3c	1	0.16	1.58	1.57	enough cells to score
55	Or5b117	1	0.42	1.65	1.5	enough cells to score
56	Gsto2	1		1.35	1.36	fewer than 50 cells per well; well left out of scoring
57	Grpel1	1	-1.05	1.56	1.33	enough cells to score
58	Meltf	1	0.59	1.8	1.64	enough cells to score
59	Eif1ax	1	-0.07	1.56	1.27	enough cells to score
